Test results as given in PubChem BioAssay AID624291 (National Center for Advancing Translational Sciences (NCATS), 2012).
The whole screen tested about 350,000 compounds, of which about 220 (0.063%) were called active. The shares of active, inactive and inconclusive entries below differ from those in the screen. The call rests on the fitted dose curve; in most records, active means well fitted activation curve with a large enough effect; inconclusive means small, poorly fitted or top-dose-only effect; inactive means no such curve, though single readings can be large or run the other way. Potencies of inconclusive entries are doubtful fits and often do not repeat.

Assay: qHTS for Activators of Integrin-Mediated Alleviation for Muscular Dystrophy; further: nearly all actives have a fitted effect of over 60% in size;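 on activation: 100% = response of the positive control SU9516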
Settings: alpha7betagal myoblasts, beta-gal FDG fluorescence, 48 h; activation: at 38.3 µM (top of the series)
Outline: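 Alpha7betagal+/- myoblasts (passage 13) were plated 16-24 hr, then exposed to compounds (1:260 dilution of DMSO stock) for 48 hours at 37C. After MPER lysis, β-galactosidase reporter activity was read as FDG fluorescence (ex 480/em 540) after 30 minutes.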
Potency means the concentration at half of the fitted maximal effect.

activation, inactive:
COC(=O)c1cccc(-n2c(CCC(=O)O)ccc2-c2cccs2)c1 0%, Cc1ccsc1C(=O)C1CCCN(Cc2cc(F)ccc2-n2cccn2)C1 (stereo unspecified) -5.12%, CCCCCCSc1ccc([C@H]2N[C@@](Cc3ccccc3)(C(=O)OC)[C@H]3C(=O)N(C)C(=O)[C@@H]23)cc1 -27.6%, O=C(NCc1cc(C(F)(F)F)ccc1Cl)c1cccc2c1C(=O)c1ccc(N3CCC(N4CCCCC4)CC3)cc1S2(=O)=O -45.5%, CN1CCc2c(sc3nc(SCC(N)=O)n(-c4ccc(Cl)cc4)c(=O)c23)C1 9.99%, CCC1CCC(C(=O)NC(C(=O)NCCN2CCOCC2)C(C)C)CC1 (stereo unspecified) 6.18%, CCCCC(=O)Nc1cc(N(C)C)nc2ccccc12 -13.9%, CCOC(=O)CSc1nnc(CSc2nc(N)c3c(C)c(C)sc3n2)n1-c1ccccc1 12.5%, COC(=O)NC(=C(Cl)Cl)S(=O)(=O)c1ccccc1 -56.9%, Cc1cc(CN(C)C(=O)c2cc(COc3ccc4ncccc4c3)on2)on1 -44.1%, Fc1ccc2nc(Nc3nc4cc5c(cc4s3)OCO5)sc2c1 -18.5%, CCN(CC)c1ccc(NC(=S)NCC2CCCO2)cc1 (stereo unspecified) -12.4%, Cn1nnc(NC(=S)NC(=O)c2cc3ccccc3o2)n1 10%, Cc1ccc2[nH]c(=O)c(C(c3nnnn3CC3CCCO3)N3CCCc4ccccc43)cc2c1 (stereo unspecified) -57.4%, CC(C)C(=O)Nc1cccc(COc2ccc(CN(CCc3ccccc3)C(=O)OC(C)(C)C)cc2)c1 -6.51%, COc1ccc(C(=S)N2CCN(c3ccccc3Cl)CC2)cc1OC 4.72%, C=CC(=O)N1C/C(=C/c2ccccc2)C(=O)/C(=C\c2ccccc2)C1 -44.8%, Cc1ccc(OCCC(=O)OCC(=O)NCCNC(=O)COC(=O)CCOc2ccc(C)cc2)cc1 -9.31%, O=[N+]([O-])c1ccc(N2CCN(c3ccc(Cl)nn3)CC2)c(Cl)c1 9.5%, FC(F)Oc1ccc(/C=N/NC(=S)Nc2cc(C(F)(F)F)ccc2Cl)cc1 11.6%, O=C(CCc1ccc(O)c(O)c1)NNC(=S)NCCc1ccccc1 17.7%, Cc1cc(=O)n2nc(N3CCC(C(=O)NCc4ccco4)CC3)sc2n1 25.9%, Cc1oc(C(C)(C)C)cc1C(=O)N1CCN(c2ccc(C(F)(F)F)cn2)CC1 43.7%, Cc1ccc(S(=O)(=O)N(CC(=O)NCc2cccs2)c2ccccc2)cc1 5.92%, COc1ccc(OCCN2CCN(C(=O)c3ccc(OC)c(OC)c3)CC2)cc1 15.3%, COC(=O)c1c(-n2c(C)cc(C=O)c2C)sc2c1CCCC2 -19.8%, S=c1[nH]nc(-c2ccco2)n1C1CCCCC1 36.5%

Potency, inconclusive:
COc1ccccc1NC(=O)N1CCN(c2ccc(F)cc2)CC1 28.2 µM [activator, single point], Cc1ccc(CNC(=O)C2CCCN(c3ncnc4c3nc3n4CCCCC3)C2)cc1 (stereo unspecified) 3.98 µM [activator, partial curve], COc1cc(NC(=O)OCc2ccccc2)c2ncccc2c1 3.55 µM [activator, full curve], C/C(=N\Nc1ccc(Cl)c(C(=O)O)c1)c1cccc([N+](=O)[O-])c1 0.794 µM [activator, single point], O=C1C(=O)N(c2ccccc2)c2ccccc21 2.51 µM [activator, partial curve, poor fit], CCCCC(=O)Nc1ccc2c(c1)nc(CCN1CCN(c3ccccn3)CC1)n2C 2.82 µM [activator, single point], O=C(c1ccc(Cl)cc1)c1oc2ccccc2c1CS(=O)c1ccccc1 (stereo unspecified) 12.6 µM [activator, single point], COC(=O)c1cc(CNC(=O)c2ccccc2OCc2c(C)noc2C)ccc1OC 0.891 µM [activator, full curve, poor fit], CN(C)c1oc(COc2ccc(F)cc2)nc1C#N 11.2 µM [activator, partial curve, poor fit], CCN(CC)c1ccc(C=Nc2ccc(C)cc2C)c(O)c1 5.62 µM [activator, partial curve, poor fit], CCC(Sc1nc2ccccc2o1)C(=O)O (stereo unspecified) 5.62 µM [activator, single point], C/C(=N\NC(=O)Cc1ccccc1[N+](=O)[O-])c1cccnc1 5.01 µM [activator, single point], Nc1cc(=O)[nH]c(SCC(=O)Nc2cccnc2Cl)n1 2.82 µM [activator, single point], CC(C)Nc1nnc(SCC(=O)NCc2ccc3c(c2)OCO3)s1 1.12 µM [activator, full curve], CCCn1c(=O)c2c(nc3n2CCN3Cc2ccco2)n(C)c1=O 14.1 µM [activator, single point], COc1ccccc1CC(=O)NNC(=O)c1cccs1 28.2 µM [activator, single point], Cc1cc(=O)[nH]c(N/N=C/c2c(C)oc3ccccc23)n1 0.891 µM [activator, partial curve, poor fit], COc1ccc(C(C(=O)NC2CCCC2)N(C(=O)CNC(=O)c2ccco2)c2cccnc2)cc1 (stereo unspecified) 8.91 µM [activator, partial curve, poor fit], COc1c2ccc(C(=O)NCCCCc3ccccc3)cc2nn1C 28.2 µM [activator, single point], Cc1ccc(C(c2nnnn2CS(=O)(=O)c2ccc(C)cc2)N2CCCC2)cc1 (stereo unspecified) 28.2 µM [activator, single point], COC1CCCN(Cc2cn(C)nc2-c2ccc(Oc3ccccc3)cc2)C1 (stereo unspecified) 11.2 µM [activator, partial curve, poor fit], Cc1ccc(Cn2ccc(NC(=O)c3cc(C4CC4)on3)n2)cc1 5.01 µM [activator, single point], COc1ccc(-c2csc(NC(=S)NC(=O)c3ccc4ccccc4c3)n2)cc1OC 28.2 µM [activator, single point], CCC(Oc1ccc(Cl)cc1)C(=O)N1CC(=O)Nc2ccccc21 (stereo unspecified) 2 µM [activator, single point], Brc1ccccc1OCCCN1CCCC1 2.82 µM [activator, partial curve, poor fit], COc1ccccc1/C=C/C(=O)Nc1cccnc1Cl 2.51 µM [activator, single point], Cc1cc(N(C)/N=C/c2ccccc2)nc(-c2ccccc2O)n1 5.01 µM [activator, single point], COCCCNCC(O)C(F)(F)F (stereo unspecified) 11.2 µM [activator, single point], O=C(C[n+]1cc(-c2ccccc2)n2c1CCC2)c1cccs1 5.01 µM [activator, single point], Cc1ccc(C(=O)NCCCNC(=O)c2ccco2)cc1 3.55 µM [activator, full curve, poor fit], Cc1cc(C(=O)N2CCN(c3ccc(C(F)(F)F)cn3)CC2)c(C)o1 1.58 µM [activator, partial curve, poor fit], Cc1csc(NC(=O)CSc2nnc(-c3ccncc3)n2C)n1 11.2 µM [activator, partial curve, poor fit], CCOC(=O)CSc1ccc(C(=O)NCCCN2CCOCC2)cc1[N+](=O)[O-] 2.51 µM [activator, partial curve, poor fit], C/C(=N/NC(=O)c1cc(C)[nH]n1)c1ccco1 5.01 µM [activator, single point], CCn1c(SCC(=O)Nc2ccc3c(c2)OCCO3)nnc1-c1cccnc1 3.16 µM [activator, partial curve, poor fit], Cn1c(=O)c2c(nc(NN=C3CCCC3)n2C)n(C)c1=O 5.01 µM [activator, single point], O=c1cc(N2CCCCC2)c(-c2ccccc2)nn1Cc1cccc(F)c1 28.2 µM [activator, single point], O=C1CCC(C(=O)N2CCCC(C(=O)c3ccc4ccccc4c3)C2)=NN1 (stereo unspecified) 0.891 µM [activator, full curve, poor fit], O=C(c1ccco1)N1CCN(C(=O)c2cc(-c3ccccc3F)no2)CC1 1.12 µM [activator, partial curve, poor fit], O=C(CCCN1C(=O)S/C(=C/C=C/c2ccccc2)C1=O)Nc1ccc(C(=O)O)cc1 5.01 µM [activator, single point], CC(=O)c1cc2c(cc1NC(=O)c1cccc(S(=O)(=O)N3CCN(C)CC3)c1)OCO2 2.82 µM [activator, partial curve, poor fit], COc1ccc(N=Cc2c(O)c3ccccc3oc2=O)cc1 5.01 µM [activator, single point], CCNC(=S)Nc1sc2c(c1C#N)CCC(C)C2 (stereo unspecified) 0.794 µM [activator, full curve, poor fit], FC(F)(F)c1cccc(Cc2noc(CN3CCCCC3c3ccccn3)n2)c1 (stereo unspecified) 10 µM [activator, partial curve, poor fit]
